Patent publication US20240325334A1, “COMPOSITION FOR GENERATING NITROGEN MONOXIDE” (SEOUL NATIONAL UNIVERSITY R&DB FOUNDATION, priority 2021, published 2024)
Counter-ions that a name gives are not always drawn.

Assay: NO generation experiment: compound reacted with H2O2 in the presence of a catalyst, Griess assay
Settings: compound 1 mg/ml, PBS pH 5.5, 1 mM H2O2, 37° C., 4 hours
Description: Generation of nitric oxide was investigated by reacting the above-described compounds having a structure of
with hydrogen peroxide (H2O2) in the presence of a catalyst. After suspending particles including 1 mg/ml of the compound below and the catalyst in a medium composed of 5 ml of PBS at pH 5.5 and hydrogen peroxide (H2O2) at 1 mM concentration, the suspension was subjected to incubation at 37° C. for 4 hours, followed by sampling the supernatant to analyze the NO generation through Griess assay.

Question: Which “Concentration of generated NO” value (catalyst Mn-porphyrin 2 mg/ml) does the source give for COC(=O)[C@H](CCCNC(=N)N)NS(=O)(=O)c1ccc(C)cc1 [Nα-Tosyl-L-arginine Methyl Ester Hydrochloride] here?
Answer: 45 µM

Question: And the “Concentration of generated NO” value (catalyst PCN-223-Fe 1 mg/ml)?
Answer: 187 µM
